Measured values reported in PubChem BioAssay AID504444 (National Center for Advancing Translational Sciences (NCATS), 2011).
Among all 360,000 compounds or so, about 7,500 (2.1%) were called active. This list was built around the results that the source calls inconclusive (neither active nor inactive); the mix of calls is not that of the screen. Calls follow the shape of the dose curve; as a rule, active = well fitted inhibition curve with a large enough effect; inconclusive = small, poorly fitted or top-dose-only effect, or effect the other way; inactive = flat fitted curve, though single readings scatter. A potency beside an inconclusive call is a rough fit, not a confirmed value.

experiment: Nrf2 qHTS screen for inhibitors; settings: A549 ARE-Fluc reporter, luciferase luminescence, 18-24 h; activity change, negative = inhibition: at 46 µM (top of the series); also: nearly all actives have a fitted effect of over 60% in size
Procedure, shortened: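 A549 ARE_Fluc cells (5000/well, 5% FBS OPTI-MEM) pre-incubated 2 h, then treated with compounds 18-24 h at 37C/5% CO2 in concentration-response. CellTiter-Fluor viability read first; BugLite luciferase luminescence after 15 min at room temperature gives Nrf2 activity.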
% is scaled to controls: 0 for no effect and ±100 for the full control effect; potency is read from the fitted curve at half-maximal effect.

Compound | activity change, negative = inhibition | Potency
COc1ccc(C2CC(=O)Oc3c(C(CCN4CCOCC4)c4ccc5c(c4)OCO5)c(OC)cc(OC)c32)cc1 (stereo not drawn) | inactive: -1.8% | 
COc1cccc(CNC(=O)c2c[nH]n3c(=O)c(Cl)c(C)nc23)c1 | inactive: -3.6% | 
O=C(CCC1N=C2c3ccccc3N=C(SCc3ccc(F)cc3)N2C1=O)N1CCN(c2ccccc2)CC1 (stereo not drawn) |  | inconclusive: 29.1 µM [activator, single point]
CSCCC(NC(=O)c1ccc(Cl)cc1)C(=O)OCC(=O)Nc1ccc(C#N)cc1 (stereo not drawn) | inactive: 5.71% | 
Cc1cc2c(nn1)CCc1nonc1-2 | inactive: 3.74% | 
COc1ccc(N2CCN(C(=O)CCCCn3c(=O)[nH]c4ccsc4c3=O)CC2)cc1 |  | inconclusive: 0.651 µM [activator, full curve, poor fit]
CCOC(=O)c1ccc(N2C(=O)c3n[nH]c(-c4cccs4)c3C2c2cccc(O)c2)cc1 (stereo not drawn) |  | inconclusive: 25.9 µM [falling, single point]
Cc1ccc(Cl)cc1N1CCN(C(=O)c2ccc3nc[nH]c3c2)CC1 |  | inconclusive: 18.4 µM [falling, single point]
CCCCN(Cc1cc2ccccc2[nH]c1=O)S(=O)(=O)c1ccc(C)cc1 |  | inconclusive: 23.1 µM [falling, single point]
CCC(Sc1ccccn1)C(=O)Nc1cccc([N+](=O)[O-])c1 (stereo not drawn) |  | inconclusive: 14.6 µM [falling, partial curve]
CC(=O)N/C(=C/c1ccc2c(c1)OCO2)C(=O)NC(Cc1ccccc1)C(=O)O (stereo not drawn) | inactive: 4.88% | 
O=C(/C=C/c1ccc(F)cc1)N1CCN(c2ccccn2)CC1 | inactive: -11.4% | 
Cc1cc(NC(=O)COC(=O)C2CC2)ccc1Br |  | inconclusive: 32.6 µM [falling, single point]
CCS/C(N)=N/N=C/c1cc(C)ccc1O |  | inconclusive: 23.1 µM [activator, partial curve]
COc1cccc(NC(=O)CCSc2nnc3scc(-c4ccccc4)n23)c1 |  | inconclusive: 9.2 µM [falling, partial curve]
CC(C)Oc1ccc(C(CC(=O)O)NC(=O)C2CCCCC2)cc1 (stereo not drawn) |  | inconclusive: 29.1 µM [activator, single point]
Cc1cc(N(C)C)c(C#N)c(NCc2ccccc2)n1 |  | inconclusive: 18.4 µM [activator, partial curve, poor fit]
CC1=C(C(=O)OCCOc2ccccc2)C(c2ccc(C)o2)C2=C(CC(C)(C)CC2=O)N1 (stereo not drawn) |  | inconclusive: 29.1 µM [falling, single point]
CCOc1ccccc1NC(=O)CSc1nc2cc(OC)c(OC)cc2c2nc(CCn3c(C)nc4ccccc43)nn12 |  | inconclusive: 11.6 µM [falling, partial curve, poor fit]
CCOC(=O)c1ccc(N2C(=O)c3n[nH]c(-c4ccco4)c3C2c2cccc([N+](=O)[O-])c2)cc1 (stereo not drawn) |  | inconclusive: 18.4 µM [falling, single point]
CCCN(CCC)C(=O)Cn1c(SCc2cccc(F)c2)nc2cccnc21 | inactive: -19.7% | 
O=C(N/N=C/c1ccc(Br)s1)c1ccccn1 |  | inconclusive: 1.64 µM [activator, full curve]
COc1ccccc1NC(=O)Cc1nnc(SCC(=O)NC2=NCCS2)n1C | inactive: 23.4% | 

Compound | activity change, negative = inhibition | Potency
CC(=O)n1c2ccccc2c2nc3ccccc3nc21 |  | inconclusive: 29.1 µM [activator, single point]
O=C(C1CCC(Cn2c(=S)[nH]c3ccccc3c2=O)CC1)N1CCN(c2ccccn2)CC1 (stereo not drawn) |  | active: 18.4 µM
CCc1cc(C(=O)Nc2ccc(OC)nc2)sc1C |  | inconclusive: 3.66 µM [activator, full curve, poor fit]
CCOC(=O)c1csc(NC(=O)c2ccc(OCC)cc2)n1 |  | active: 20.6 µM
COc1ccccc1-c1ccc(Nc2ccc(C(=O)N3CCOCC3)cc2)nn1 |  | inconclusive: 20.6 µM [falling, single point]
CC(OC(=O)c1cc2sccc2n1C)C(=O)NC(C)(C)C (stereo not drawn) |  | inconclusive: 29.1 µM [falling, single point]
CCOC(=O)c1sc(NC(=O)c2nc3nc(C)cc(C(F)F)n3n2)c(C(=O)OC(C)C)c1C | inactive: 12.2% | 
CCC1CCCCN1C(=O)c1cc2c(=O)n3cccc(C)c3nc2s1 (stereo not drawn) |  | inconclusive: 16.4 µM [activator, partial curve]
CCOc1ccc(-n2c(-c3ccccc3)c[n+]3c2CCCCC3)cc1 |  | active: 2.06 µM
CC1C(=O)N(Cc2ccc(F)cc2)c2ccccc2N1C(=O)c1c(F)cccc1F (stereo not drawn) |  | inconclusive: 18.4 µM [falling, single point]
O=C(Oc1ccc(-c2nnco2)cc1)N(c1ccccc1)c1ccccc1 |  | inconclusive: 18.4 µM [falling, partial curve]
Cn1cccc1C(=O)OCC(=O)c1ccc(Br)s1 |  | inconclusive: 16.4 µM [activator, single point]
CC1=C/C(=C(/c2ccc(O)c(C)c2)c2ccccc2S(=O)(=O)O)C=CC1=O |  | inconclusive: 1.84 µM [falling, partial curve, poor fit]
O=C1CSC(=S)N1c1ccc(O)cc1 |  | inconclusive: 23.1 µM [falling, partial curve, poor fit]
Cc1cc(C(=O)Nc2nnc(C3CC3)s2)c(C)s1 |  | inconclusive: 8.2 µM [activator, partial curve]
Cc1cc(C)c(Cn2cnc(-c3ccc([N+](=O)[O-])cc3)c2)c(C)c1 |  | active: 20.6 µM
CC(C)c1ccc(N(C(=O)c2csnn2)C(C(=O)NC(C)(C)C)c2ccncc2)cc1 (stereo not drawn) |  | inconclusive: 4.61 µM [activator, single point]
Cn1c(C(=O)NC2CC2)cc2c(=O)n(C)c3ccccc3c21 |  | inconclusive: 2.59 µM [falling, full curve]
CN(c1ccccc1)S(=O)(=O)c1ccc(Cl)c(C(=O)Nc2ccc(-c3nc4ccccc4[nH]3)cc2)c1 |  | inconclusive: 18.4 µM [falling, single point]
CCCC1=Nc2cc(C(=O)N3CCN(c4ccccn4)CC3)ccc2Sc2ccc(C)cc21 |  | inconclusive: 32.6 µM [falling, single point]
COC(=O)c1ccc(-c2nc3cc(N)ccc3o2)cc1 |  | inconclusive: 8.2 µM [falling, partial curve, poor fit]
Cc1ccc(CCN2C(=O)CCC2(C)C(=O)NC2CCCC2)cc1 (stereo not drawn) | inactive: 2.46% | 
O=C(CSc1ccccc1)Nc1nccs1 |  | inconclusive: 7.31 µM [activator, partial curve]

Compound | activity change, negative = inhibition | Potency
O=C(NOCc1ccccc1)c1ccc(Cl)cc1Cl |  | inconclusive: 1.46 µM [activator, partial curve, poor fit]
Cc1cc(C)nc(Nc2ccc(N3CCOCC3)cc2)n1 | inactive: 23.2% | 
CC(=O)N1c2ccc(S(=O)(=O)N3CCCC(C(=O)Nc4ccc(C)cc4C)C3)cc2CC1C (stereo not drawn) |  | inconclusive: 29.1 µM [falling, single point]
CC(=O)N/C(=C\c1ccccc1)C(=O)OCC(=O)c1ccc(F)cc1 |  | inconclusive: 4.61 µM [falling, single point]
CC(C)c1ccc(C(=O)NCc2ccc(Cl)cc2)cc1 |  | inconclusive: 10.3 µM [activator, partial curve, poor fit]
CC(C)N1CCC(N2CCN(C/C=C/c3ccc(F)cc3)CC2CCO)CC1 (stereo not drawn) |  | inconclusive: 3.26 µM [activator, full curve]
Cc1ccccc1OCC(=O)N/N=C/c1ccc([N+](=O)[O-])o1 |  | inconclusive: 29.1 µM [falling, single point]
CN=c1scc(-c2cc(OC)ccc2OC)n1/N=C/c1c(C)[nH]c2ccccc12 |  | inconclusive: 23.1 µM [falling, single point]
CCCN(CCC)CCCNC(=O)Cn1ncn2c(cc3sc(CC)cc32)c1=O |  | inconclusive: 6.51 µM [activator, partial curve, poor fit]
COCCCn1c(=O)c2sccc2n(Cc2cccc(C)c2)c1=O | inactive: -18.4% | 
Cn1c(-c2cccc(Br)c2)cnc1NCc1cccc(F)c1 | inactive: -19% | 
Cc1cc(C(N)=O)c2ccccc2n1 | inactive: 4.12% | 
CCCOc1ccc(C(=O)NCCC(=O)NCCCC(=O)O)cc1 | inactive: 2.79% | 
N#Cc1nc(-c2ccco2)oc1N1CCc2ccccc2C1 |  | inconclusive: 29.1 µM [falling, single point]
COc1ccc(OC(C)C(=O)N(C)Cc2nc(-c3ccc(OC)cc3)no2)cc1 (stereo not drawn) |  | inconclusive: 23.1 µM [falling, single point]
Cc1ccc(S(=O)(=O)N2CCN(CC(=O)Nc3ccccc3C(=O)NC3CC3)CC2)cc1 |  | inconclusive: 5.17 µM [activator, single point]
COc1ccc2cc1Oc1ccc(cc1)C[C@H]1c3c(cc4c(c3Oc3cc5c(cc3OC)CCN(C)[C@@H]5C2)OCO4)CCN1C |  | inconclusive: 32.6 µM [falling, partial curve, poor fit]
Cc1cccc(-c2nnc(SCC(=O)Nc3ccc(C)c(C)c3)o2)c1 |  | inconclusive: 14.6 µM [activator, partial curve, poor fit]
O=C(N/N=C/c1cc(Cl)cc(Cl)c1O)c1ccncc1 |  | active: 9.2 µM
COC(=O)c1c(NC(=O)CCCC(=O)O)sc2c1CCCCC2 |  | active: 5.17 µM
COP(=O)(OC)c1nc(-c2ccc(C)cc2)oc1N1CCCCC1 |  | inconclusive: 25.9 µM [falling, single point]
Cc1cc(C(=O)COC(=O)CCC(=O)c2ccc3c(c2)OCCO3)c(C)n1Cc1ccco1 |  | inconclusive: 4.11 µM [falling, single point]

3 records picked at random from the list so far:
Compound | activity change, negative = inhibition | Potency
CC1=C/C(=C(/c2ccc(O)c(C)c2)c2ccccc2S(=O)(=O)O)C=CC1=O |  | inconclusive: 1.84 µM [falling, partial curve, poor fit]
CCOC(=O)c1ccc(N2C(=O)c3n[nH]c(-c4ccco4)c3C2c2cccc([N+](=O)[O-])c2)cc1 (stereo not drawn) |  | inconclusive: 18.4 µM [falling, single point]
Cc1cc(C(=O)Nc2nnc(C3CC3)s2)c(C)s1 |  | inconclusive: 8.2 µM [activator, partial curve]
